In paper PMC7790828:
Results are given in words; binding and its absence hold for the method and conditions named. In cells and extracts the contact can be indirect. Some binding calls cover weakened binding; strength is not graded here.

B1: FAT10, endogenous in mouse heart (protein, UniProt P63072 1-162)
chain: MASVRTCVVRSDQWRLMTFETTENDKVKKINEHIRSQTKVSVQDQILLLDSKILKPHRKLSSYGIDKETTIHLTLKVVKPSDEELPLFLVESKNEGQRHLLRVRRSSSVAQVKEMIESVTSVIPKKQVVNCNGKKLEDGKIMADYNIKSGSLLFLTTHCTGG
B2: human leukocyte antigen F-associated transcript 10 (FAT10), endogenous in neonatal rat cardiomyocytes (protein, UniProt Q921A3 1-161)
chain: MASCVCVVRSEQWPLMTFDTTMSDKVKKINEHIRSQTKVSVQDQILLLDSKILKPHRALSSYGIDKENTIHLTLKVVKPSDEELPLSLVESGDEGQRHLLRVRRSSSVAQVKEMIENVTAVPPKKQIVNCNGKRLEDGKIMADYNIKSGSLLFLTAHCIGG

Key:
[1] = target: Nav1.5, endogenous in mouse heart (mouse (endogenous in heart)) (UniProt Q9JJV9); test: co-IP; endogenous proteins; neonatal rat cardiomyocytes (NRCMs) and adult mouse heart extracts
[2] = target: voltage-gated Na+ channel Nav1.5, endogenous in neonatal rat cardiomyocytes (rat (endogenous in NRCMs)) (UniProt P15389); test: as above

| Binder | binding [1] | binding [2] |
| --- | --- | --- |
| B1 | binds |  |
| B2 |  | binds |
